The source of these data is the supplement of paper PMC4604168 (melanoma cell lines).

The other results are listed elsewhere or left out. Many values rest on one well or one pass, so single values are uncertain.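 The apoptosis fraction was the count of cleaved-PARP antibody-stained nuclei relative to all DNA-stained nuclei, imaged in 1,536-well plates. Screening doses were set so most cells survived, and baseline and induced cleaved-PARP levels vary greatly across cell lines.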

The assay relates to WM3619. Description: cleaved PARP positive nuclei fraction relative to DMSO control; melanoma cells; higher = more apoptosis. The conditions noted are these: library dose: low library concentration; 72 h.
`COc1cc([C@@H]2c3cc4c(cc3[C@@H](O[C@@H]3O[C@@H]5CO[C@@H](C)O[C@H]5[C@H](O)[C@H]3O)[C@H]3COC(=O)[C@H]23)OCO4)cc(OC)c1O` [etoposide] + COc1cc(N2CCC(N3CCN(C)CC3)CC2)ccc1Nc1ncc(Cl)c(Nc2ccccc2S(=O)(=O)C(C)C)n1 [NVP-TAE684] (first compound 0.02 µM, partner dose 0.08 µM): the “cleaved PARP positive nuclei fraction” value worked out at 85.1%. For the molecule `Cc1cc(Nc2cc(N3CCN(C)CC3)nc(Sc3ccc(NC(=O)C4CC4)cc3)n2)n[nH]1` [Tozasertib] + COc1cc(N2CCC(N3CCN(C)CC3)CC2)ccc1Nc1ncc(Cl)c(Nc2ccccc2S(=O)(=O)C(C)C)n1 [NVP-TAE684] (first compound 0.006 µM, partner dose 0.08 µM), the “cleaved PARP positive nuclei fraction” value turned out to be 104%.

In the case of `CCCCCCCCCCCCCCCCCCOP(=O)([O-])OC1CC[N+](C)(C)CC1` [Perifosine] + O=S(=O)(c1ccccc1)N(CC(F)(F)F)c1ccc(C(O)(C(F)(F)F)C(F)(F)F)cc1 [T0901317] (first compound 0.4 µM, partner dose 1.4 µM), the “cleaved PARP positive nuclei fraction” value came out at 192%. The same measure for `CC[C@]1(O)C[C@H]2CN(CCc3c([nH]c4ccccc34)[C@@](C(=O)OC)(c3cc4c(cc3OC)N(C=O)[C@H]3[C@@](O)(C(=O)OC)[C@H](OC(C)=O)[C@]5(CC)C=CCN6CC[C@]43[C@@H]65)C2)C1` [vincristine] + Cn1cncc1[C@@](N)(c1ccc(Cl)cc1)c1ccc2c(c1)c(-c1cccc(Cl)c1)cc(=O)n2C [tipifarnib] (first compound 0.0001 µM, partner dose 0.01 µM): 143%; for `Cc1cn(-c2cc(NC(=O)c3ccc(C)c(Nc4nccc(-c5cccnc5)n4)c3)cc(C(F)(F)F)c2)cn1` [nilotinib] + CN(NC(=O)CC(=O)NN(C)C(=S)c1ccccc1)C(=S)c1ccccc1 [STA4783] (first compound 0.2 µM, partner dose 0.006 µM): 155%.

Regarding `O=C(/C=C/c1cccnc1)NCCCCC1CCN(C(=O)c2ccccc2)CC1` + O=C(Nc1ccccc1)c1cc([N+](=O)[O-])ccc1Cl [GW9662] (first compound 0.01 µM, partner dose 2 µM), the “cleaved PARP positive nuclei fraction” value is 147%. The result for `CC[C@]1(O)C[C@H]2CN(CCc3c([nH]c4ccccc34)[C@@](C(=O)OC)(c3cc4c(cc3OC)N(C=O)[C@H]3[C@@](O)(C(=O)OC)[C@H](OC(C)=O)[C@]5(CC)C=CCN6CC[C@]43[C@@H]65)C2)C1` [vincristine] + O=c1cc(-c2cccc3c2Sc2ccccc2S3)oc(N2CCOCC2)c1 [KU55933] (first compound 0.0001 µM, partner dose 1 µM) reads 173%; that for `N#CC[C@H](C1CCCC1)n1cc(-c2ncnc3[nH]ccc23)cn1` [ruxolitinib] + NCC(=O)Nc1ccc(-n2nc(C(F)(F)F)cc2-c2ccc3c(ccc4ccccc43)c2)cc1 [OSU03012] (first compound 1 µM, partner dose 1 µM), 86.5%. `O=c1[nH]nc(Sc2ncc([N+](=O)[O-])s2)n1-c1ccc2c(c1)OCCO2` + CC(C)CCN1c2nc(Nc3cc(F)c(O)c(F)c3)ncc2N(C)C(=O)C1C [BID1870] (first compound 0.2 µM, partner dose 0.2 µM): the “cleaved PARP positive nuclei fraction” value was 92.7%. On to `Cc1cn(-c2cc(NC(=O)c3ccc(C)c(Nc4nccc(-c5cccnc5)n4)c3)cc(C(F)(F)F)c2)cn1` [nilotinib] + O=C(Nc1cccc(Cl)c1)Nc1ncc(CCNc2ncnc3ccsc23)s1 [SNS314] (first compound 0.2 µM, partner dose 0.0008 µM), for which the “cleaved PARP positive nuclei fraction” value is 105%. The result for `Cc1ccc(Nc2nccc(N(C)c3ccc4c(C)n(C)nc4c3)n2)cc1S(N)(=O)=O` [Pazopanib] + O=S(=O)(c1ccccc1)N(CC(F)(F)F)c1ccc(C(O)(C(F)(F)F)C(F)(F)F)cc1 [T0901317] (first compound 0.4 µM, partner dose 1.4 µM) reads 107%. The result for `CCCCCCCCCCCCCCCCCCOP(=O)([O-])OC1CC[N+](C)(C)CC1` [Perifosine] + CC(C)(C)c1cnc(CSc2cnc(NC(=O)C3CCNCC3)s2)o1 [SNS-032] (first compound 0.4 µM, partner dose 0.01 µM) reads 113%.
